± gives the standard deviation of the averaged measurements. The list shows a part of the results, in another mix than the full data.
Compound: Nc1ncnc2c1ncn2[C@@H]1O[C@H](COP(=O)(O)OP(=O)(O)NP(=O)(O)O)[C@@H](O)[C@H]1O [adenylyl imidodiphosphate]
Experiment: NP40-soluble protein abundance relative to vehicle (solubility fold change) (ratio); higher = more soluble protein in presence of AMP-PNP
In short: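 Each value is a fold change relative to the detergent-processed vehicle, calculated per replicate from vsn-normalised intensities. Jurkat crude lysate received eight concentrations (0.1 to 10 mM) for 10 min at room temperature and 3 min at 37 °C, then was solubilised in 0.8% NP40 with benzonase (60 min, 4 °C). The ultracentrifuged supernatant was TMT-labelled and run by LC-MS/MS in three independent experiments.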

The chains behind the UniProt entries cited, without tags or fusion partners. Where a name states a change or a piece, a line headed by the entry shows the natural chain unless it says otherwise.
UniProt Q9NR09, whole entry: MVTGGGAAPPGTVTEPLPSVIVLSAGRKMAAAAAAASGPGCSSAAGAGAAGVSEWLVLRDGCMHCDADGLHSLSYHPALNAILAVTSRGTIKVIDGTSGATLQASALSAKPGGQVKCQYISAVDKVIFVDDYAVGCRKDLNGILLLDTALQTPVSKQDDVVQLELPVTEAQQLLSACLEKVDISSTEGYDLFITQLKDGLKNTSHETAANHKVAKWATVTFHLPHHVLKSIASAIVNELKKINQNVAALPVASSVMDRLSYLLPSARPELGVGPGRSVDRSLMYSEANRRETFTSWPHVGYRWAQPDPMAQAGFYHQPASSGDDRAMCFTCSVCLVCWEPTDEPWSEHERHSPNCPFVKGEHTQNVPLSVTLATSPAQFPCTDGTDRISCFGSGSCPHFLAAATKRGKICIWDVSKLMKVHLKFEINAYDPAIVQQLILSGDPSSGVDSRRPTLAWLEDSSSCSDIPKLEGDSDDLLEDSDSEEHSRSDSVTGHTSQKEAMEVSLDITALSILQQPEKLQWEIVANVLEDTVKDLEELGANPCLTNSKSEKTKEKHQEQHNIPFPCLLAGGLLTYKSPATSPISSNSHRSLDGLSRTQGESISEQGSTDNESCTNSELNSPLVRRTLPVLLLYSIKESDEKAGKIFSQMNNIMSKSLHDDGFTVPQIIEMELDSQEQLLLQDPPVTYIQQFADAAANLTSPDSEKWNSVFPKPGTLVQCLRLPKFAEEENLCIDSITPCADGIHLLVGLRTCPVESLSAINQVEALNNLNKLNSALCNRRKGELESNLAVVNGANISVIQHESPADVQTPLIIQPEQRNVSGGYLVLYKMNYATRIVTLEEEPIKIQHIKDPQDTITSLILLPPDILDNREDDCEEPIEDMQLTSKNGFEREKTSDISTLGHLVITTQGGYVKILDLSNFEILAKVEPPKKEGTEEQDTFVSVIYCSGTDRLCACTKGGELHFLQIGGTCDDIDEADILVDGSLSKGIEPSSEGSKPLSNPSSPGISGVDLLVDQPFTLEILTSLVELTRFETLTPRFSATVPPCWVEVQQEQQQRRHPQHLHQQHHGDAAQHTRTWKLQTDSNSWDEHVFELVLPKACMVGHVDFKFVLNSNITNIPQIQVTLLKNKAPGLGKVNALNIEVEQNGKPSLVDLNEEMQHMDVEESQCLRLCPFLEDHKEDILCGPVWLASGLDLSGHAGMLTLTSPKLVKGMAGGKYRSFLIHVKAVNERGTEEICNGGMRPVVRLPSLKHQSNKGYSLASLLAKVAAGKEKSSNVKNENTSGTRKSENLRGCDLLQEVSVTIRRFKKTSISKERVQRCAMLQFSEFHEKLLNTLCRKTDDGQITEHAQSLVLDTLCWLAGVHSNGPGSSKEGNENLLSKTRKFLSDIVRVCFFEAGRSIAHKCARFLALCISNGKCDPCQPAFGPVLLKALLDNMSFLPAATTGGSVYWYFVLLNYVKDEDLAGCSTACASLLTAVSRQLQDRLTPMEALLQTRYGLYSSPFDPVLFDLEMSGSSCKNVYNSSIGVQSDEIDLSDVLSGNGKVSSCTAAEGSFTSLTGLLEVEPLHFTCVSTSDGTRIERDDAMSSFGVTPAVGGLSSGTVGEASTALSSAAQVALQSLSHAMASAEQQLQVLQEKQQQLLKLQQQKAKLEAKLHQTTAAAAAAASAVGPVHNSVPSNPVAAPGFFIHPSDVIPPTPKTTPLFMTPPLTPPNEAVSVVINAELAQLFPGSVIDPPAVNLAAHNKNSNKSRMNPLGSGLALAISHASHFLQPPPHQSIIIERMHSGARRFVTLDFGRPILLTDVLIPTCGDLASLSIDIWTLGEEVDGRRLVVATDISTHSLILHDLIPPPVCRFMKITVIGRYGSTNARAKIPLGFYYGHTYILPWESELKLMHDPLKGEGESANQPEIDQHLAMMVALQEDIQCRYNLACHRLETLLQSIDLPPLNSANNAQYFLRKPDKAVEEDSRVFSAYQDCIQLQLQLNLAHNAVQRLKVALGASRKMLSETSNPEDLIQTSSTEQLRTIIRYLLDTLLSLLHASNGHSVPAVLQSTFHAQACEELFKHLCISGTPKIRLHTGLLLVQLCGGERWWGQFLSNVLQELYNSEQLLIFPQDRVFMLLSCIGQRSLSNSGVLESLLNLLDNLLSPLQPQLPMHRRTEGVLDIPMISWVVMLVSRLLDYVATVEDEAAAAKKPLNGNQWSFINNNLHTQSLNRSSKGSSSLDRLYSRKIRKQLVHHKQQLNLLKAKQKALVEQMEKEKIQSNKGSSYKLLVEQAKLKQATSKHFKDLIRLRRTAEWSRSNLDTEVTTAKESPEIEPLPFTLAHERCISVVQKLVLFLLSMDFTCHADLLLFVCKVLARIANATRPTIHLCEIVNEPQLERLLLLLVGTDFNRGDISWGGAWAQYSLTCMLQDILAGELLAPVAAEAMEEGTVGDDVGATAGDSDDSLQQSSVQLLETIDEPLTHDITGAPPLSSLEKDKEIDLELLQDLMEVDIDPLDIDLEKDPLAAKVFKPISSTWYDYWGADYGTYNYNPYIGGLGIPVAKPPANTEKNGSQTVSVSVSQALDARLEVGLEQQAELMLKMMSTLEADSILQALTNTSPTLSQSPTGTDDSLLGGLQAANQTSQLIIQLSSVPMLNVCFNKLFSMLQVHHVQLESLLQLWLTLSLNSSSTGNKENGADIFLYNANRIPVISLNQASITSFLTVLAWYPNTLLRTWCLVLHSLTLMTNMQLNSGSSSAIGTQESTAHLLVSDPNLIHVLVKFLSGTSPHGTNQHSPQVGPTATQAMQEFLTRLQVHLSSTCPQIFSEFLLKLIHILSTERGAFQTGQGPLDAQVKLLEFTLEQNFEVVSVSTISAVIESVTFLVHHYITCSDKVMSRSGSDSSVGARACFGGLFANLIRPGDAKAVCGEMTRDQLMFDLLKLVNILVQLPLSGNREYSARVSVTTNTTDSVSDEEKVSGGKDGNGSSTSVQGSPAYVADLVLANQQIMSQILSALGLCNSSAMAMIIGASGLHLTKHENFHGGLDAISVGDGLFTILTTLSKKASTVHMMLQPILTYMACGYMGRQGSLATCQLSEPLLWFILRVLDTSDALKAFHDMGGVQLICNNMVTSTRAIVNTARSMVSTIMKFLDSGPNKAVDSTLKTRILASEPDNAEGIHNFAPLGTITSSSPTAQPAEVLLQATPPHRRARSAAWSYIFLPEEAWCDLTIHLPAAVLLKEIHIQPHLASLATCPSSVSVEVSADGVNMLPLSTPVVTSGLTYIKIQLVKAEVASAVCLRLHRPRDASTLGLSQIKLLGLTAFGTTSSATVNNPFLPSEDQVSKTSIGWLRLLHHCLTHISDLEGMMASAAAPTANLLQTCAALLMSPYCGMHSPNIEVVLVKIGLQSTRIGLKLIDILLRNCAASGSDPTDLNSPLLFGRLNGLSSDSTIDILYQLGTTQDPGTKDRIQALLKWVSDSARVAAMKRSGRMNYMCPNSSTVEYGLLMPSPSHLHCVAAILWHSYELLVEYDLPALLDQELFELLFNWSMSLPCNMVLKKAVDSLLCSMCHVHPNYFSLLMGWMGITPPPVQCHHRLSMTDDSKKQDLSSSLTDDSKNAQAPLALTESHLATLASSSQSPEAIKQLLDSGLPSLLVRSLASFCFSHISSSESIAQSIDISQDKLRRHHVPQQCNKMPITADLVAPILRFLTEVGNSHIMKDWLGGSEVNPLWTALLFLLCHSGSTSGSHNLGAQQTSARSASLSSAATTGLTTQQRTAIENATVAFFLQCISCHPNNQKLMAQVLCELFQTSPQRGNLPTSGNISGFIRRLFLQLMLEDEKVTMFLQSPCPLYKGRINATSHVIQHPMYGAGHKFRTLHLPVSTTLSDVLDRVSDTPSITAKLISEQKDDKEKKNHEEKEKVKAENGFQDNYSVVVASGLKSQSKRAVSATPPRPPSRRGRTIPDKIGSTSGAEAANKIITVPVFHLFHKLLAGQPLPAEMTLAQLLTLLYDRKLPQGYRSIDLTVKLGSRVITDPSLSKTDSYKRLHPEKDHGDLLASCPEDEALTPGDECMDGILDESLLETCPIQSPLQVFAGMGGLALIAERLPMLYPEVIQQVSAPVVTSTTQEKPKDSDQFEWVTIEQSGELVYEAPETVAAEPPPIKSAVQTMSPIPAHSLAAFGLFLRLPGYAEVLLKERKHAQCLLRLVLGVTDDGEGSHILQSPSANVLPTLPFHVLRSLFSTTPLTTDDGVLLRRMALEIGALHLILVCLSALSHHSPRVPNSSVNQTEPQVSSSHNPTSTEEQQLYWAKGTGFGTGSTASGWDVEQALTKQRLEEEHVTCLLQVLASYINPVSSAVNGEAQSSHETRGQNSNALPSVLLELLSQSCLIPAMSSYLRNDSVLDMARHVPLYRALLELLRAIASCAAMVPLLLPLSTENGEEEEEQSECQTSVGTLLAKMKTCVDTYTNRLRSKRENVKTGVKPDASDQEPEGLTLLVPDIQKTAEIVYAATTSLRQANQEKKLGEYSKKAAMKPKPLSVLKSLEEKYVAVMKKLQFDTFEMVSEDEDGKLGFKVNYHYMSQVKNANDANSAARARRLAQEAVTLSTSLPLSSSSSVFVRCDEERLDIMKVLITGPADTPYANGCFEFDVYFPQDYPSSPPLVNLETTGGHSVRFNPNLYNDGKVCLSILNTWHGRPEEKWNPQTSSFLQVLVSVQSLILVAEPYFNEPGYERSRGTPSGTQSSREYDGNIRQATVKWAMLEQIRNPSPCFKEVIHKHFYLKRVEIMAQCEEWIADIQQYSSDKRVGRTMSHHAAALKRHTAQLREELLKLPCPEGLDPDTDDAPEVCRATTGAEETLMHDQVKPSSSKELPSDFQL
UniProt Q9UBF2: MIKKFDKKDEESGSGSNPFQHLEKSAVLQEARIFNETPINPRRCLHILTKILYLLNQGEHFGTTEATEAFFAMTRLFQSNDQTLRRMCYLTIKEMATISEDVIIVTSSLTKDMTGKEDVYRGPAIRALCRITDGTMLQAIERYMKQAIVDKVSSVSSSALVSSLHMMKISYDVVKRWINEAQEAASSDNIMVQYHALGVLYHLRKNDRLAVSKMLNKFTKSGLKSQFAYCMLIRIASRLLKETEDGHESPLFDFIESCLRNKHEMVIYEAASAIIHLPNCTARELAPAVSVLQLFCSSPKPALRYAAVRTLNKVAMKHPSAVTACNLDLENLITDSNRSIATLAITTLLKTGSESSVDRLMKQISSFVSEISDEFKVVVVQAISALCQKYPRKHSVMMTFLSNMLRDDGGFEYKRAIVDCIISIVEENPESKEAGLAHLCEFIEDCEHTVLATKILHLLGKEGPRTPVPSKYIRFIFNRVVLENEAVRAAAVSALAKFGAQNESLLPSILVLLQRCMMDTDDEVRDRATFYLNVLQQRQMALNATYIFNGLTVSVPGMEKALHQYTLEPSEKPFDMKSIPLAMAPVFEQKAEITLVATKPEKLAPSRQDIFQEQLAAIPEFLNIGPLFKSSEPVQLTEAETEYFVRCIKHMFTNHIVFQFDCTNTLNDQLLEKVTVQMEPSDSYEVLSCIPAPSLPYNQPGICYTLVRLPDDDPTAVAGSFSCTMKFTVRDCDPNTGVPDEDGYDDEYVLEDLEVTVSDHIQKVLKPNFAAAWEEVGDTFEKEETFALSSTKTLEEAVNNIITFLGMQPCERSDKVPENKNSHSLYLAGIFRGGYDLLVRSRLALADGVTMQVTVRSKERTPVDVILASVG
UniProt Q9NUP9: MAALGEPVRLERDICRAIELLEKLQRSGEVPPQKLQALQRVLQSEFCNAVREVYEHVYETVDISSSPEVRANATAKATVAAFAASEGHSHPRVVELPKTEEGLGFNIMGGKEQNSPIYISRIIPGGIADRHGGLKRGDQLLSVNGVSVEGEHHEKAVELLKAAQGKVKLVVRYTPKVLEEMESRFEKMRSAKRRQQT
UniProt Q9UBM7: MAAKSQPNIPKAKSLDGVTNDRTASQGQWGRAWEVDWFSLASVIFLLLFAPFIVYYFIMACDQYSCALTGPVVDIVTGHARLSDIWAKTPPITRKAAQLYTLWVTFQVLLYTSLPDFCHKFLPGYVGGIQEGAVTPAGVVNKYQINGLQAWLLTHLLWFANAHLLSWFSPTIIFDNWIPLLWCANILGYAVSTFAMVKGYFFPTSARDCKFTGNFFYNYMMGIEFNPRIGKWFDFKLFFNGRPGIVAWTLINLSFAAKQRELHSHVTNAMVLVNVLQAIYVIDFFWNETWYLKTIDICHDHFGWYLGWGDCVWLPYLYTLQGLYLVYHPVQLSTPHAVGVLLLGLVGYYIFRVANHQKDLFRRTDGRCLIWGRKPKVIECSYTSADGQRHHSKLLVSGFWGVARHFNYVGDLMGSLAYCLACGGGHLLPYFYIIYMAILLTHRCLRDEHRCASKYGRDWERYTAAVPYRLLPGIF
UniProt Q9NRP0: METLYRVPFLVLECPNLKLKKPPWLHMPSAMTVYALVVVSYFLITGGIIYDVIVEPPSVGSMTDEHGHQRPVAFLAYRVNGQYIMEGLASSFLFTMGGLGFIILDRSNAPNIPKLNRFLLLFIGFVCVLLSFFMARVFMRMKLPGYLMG

| Target | NP40-soluble protein abundance (concentration: 1mM) | NP40-soluble protein abundance (concentration: 2mM) | NP40-soluble protein abundance (concentration: 4mM) | NP40-soluble protein abundance (concentration: 6mM) | NP40-soluble protein abundance (concentration: 8mM) | NP40-soluble protein abundance (concentration: 10mM) |
| --- | --- | --- | --- | --- | --- | --- |
| UniProt Q9NX55 | 1.05 ± 0.014 | 1.08 ± 0.045 | 1.059 ± 0.0087 | 1.01 ± 0.015 | 1.02 ± 0.011 | 1.017 ± 0.008 |
| UniProt Q9UBS0 | 1.09 ± 0.05 | 1.09 ± 0.1 | 1.1 ± 0.09 | 1.09 ± 0.035 | 1.07 ± 0.036 | 1.06 ± 0.043 |
| ACTR10 (UniProt Q9NZ32) | 0.996 ± 0.035 | 0.957 ± 0.056 | 0.988 ± 0.054 | 0.961 ± 0.058 | 0.957 ± 0.062 | 0.949 ± 0.076 |
| NUDT15 (UniProt Q9NV35) | 0.957 ± 0.049 | 1.01 ± 0.048 | 0.975 ± 0.053 | 1.02 ± 0.072 | 1.01 ± 0.023 | 1.01 ± 0.059 |
| UniProt Q9NY93 and related entries | 1.014 ± 0.0045 | 1.03 ± 0.025 | 1.01 ± 0.018 | 0.978 ± 0.015 | 0.962 ± 0.042 | 0.995 ± 0.03 |
| UniProt Q9P1Y5 and related entries | 0.968 ± 0.029 | 0.966 ± 0.068 | 0.935 ± 0.065 | 0.943 ± 0.058 | 0.96 ± 0.041 | 0.925 ± 0.066 |
| RBM27 (UniProt Q9P2N5) | 1.04 ± 0.021 | 1.15 ± 0.062 | 1.13 ± 0.05 | 1.24 ± 0.12 | 1.25 ± 0.11 | 1.34 ± 0.16 |
| UniProt Q9NSB8 and related entries | 0.998 ± 0.0067 | 1.01 ± 0.065 | 0.999 ± 0.038 | 1.01 ± 0.033 | 1.01 ± 0.016 | 1.06 ± 0.036 |
| BIRC6 (UniProt Q9NR09) | 0.977 ± 0.044 | 0.958 ± 0.068 | 0.964 ± 0.07 | 0.921 ± 0.06 | 0.894 ± 0.06 | 0.899 ± 0.091 |
| UniProt Q9NY12 and related entries | 0.986 ± 0.018 | 0.995 ± 0.017 | 1.03 ± 0.02 | 1.13 ± 0.032 | 1.19 ± 0.017 | 1.23 ± 0.069 |
| ARGLU1 (UniProt Q9NWB6) | 1.06 ± 0.045 | 1.13 ± 0.049 | 1.1 ± 0.043 | 1.15 ± 0.04 | 1.16 ± 0.021 | 1.3 ± 0.11 |
| UniProt Q9NX04 and related entries | 1.017 ± 0.0076 | 0.997 ± 0.048 | 1.08 ± 0.014 | 1.14 ± 0.02 | 1.14 ± 0.046 | 1.11 ± 0.037 |
| COPG2 (UniProt Q9UBF2) | 1.01 ± 0.021 | 0.953 ± 0.075 | 0.985 ± 0.027 | 0.995 ± 0.021 | 0.986 ± 0.012 | 0.978 ± 0.032 |
| UniProt Q9NWR8 | 1.009 ± 0.0068 | 1 ± 0.043 | 1.01 ± 0.034 | 0.998 ± 0.036 | 1.008 ± 0.0018 | 1.01 ± 0.031 |
| UniProt Q9NUP9 | 1.017 ± 0.0065 | 1.02 ± 0.022 | 0.998 ± 0.033 | 0.945 ± 0.028 | 0.974 ± 0.024 | 0.916 ± 0.033 |
| UTP3 (UniProt Q9NQZ2) | 1.01 ± 0.033 | 1.05 ± 0.039 | 1.03 ± 0.046 | 1.06 ± 0.069 | 1.12 ± 0.052 | 1.14 ± 0.058 |
| TBC1D13 (UniProt Q9NVG8) | 0.991 ± 0.016 | 0.96 ± 0.026 | 0.995 ± 0.044 | 0.925 ± 0.018 | 0.96 ± 0.015 | 0.921 ± 0.014 |

Looked up one by one from the entries so far:

| Target | NP40-soluble protein abundance (concentration: 1mM) | NP40-soluble protein abundance (concentration: 2mM) | NP40-soluble protein abundance (concentration: 4mM) | NP40-soluble protein abundance (concentration: 6mM) | NP40-soluble protein abundance (concentration: 8mM) | NP40-soluble protein abundance (concentration: 10mM) |
| --- | --- | --- | --- | --- | --- | --- |
| UniProt Q9NWR8 | 1.009 ± 0.0068 | 1 ± 0.043 | 1.01 ± 0.034 | 0.998 ± 0.036 | 1.008 ± 0.0018 | 1.01 ± 0.031 |
| ACTR10 (UniProt Q9NZ32) | 0.996 ± 0.035 | 0.957 ± 0.056 | 0.988 ± 0.054 | 0.961 ± 0.058 | 0.957 ± 0.062 | 0.949 ± 0.076 |
| UniProt Q9P1Y5 and related entries | 0.968 ± 0.029 | 0.966 ± 0.068 | 0.935 ± 0.065 | 0.943 ± 0.058 | 0.96 ± 0.041 | 0.925 ± 0.066 |

Going on with the list.

| Target | NP40-soluble protein abundance (concentration: 1mM) | NP40-soluble protein abundance (concentration: 2mM) | NP40-soluble protein abundance (concentration: 4mM) | NP40-soluble protein abundance (concentration: 6mM) | NP40-soluble protein abundance (concentration: 8mM) | NP40-soluble protein abundance (concentration: 10mM) |
| --- | --- | --- | --- | --- | --- | --- |
| KCMF1 (UniProt Q9P0J7) | 0.969 ± 0.048 | 0.981 ± 0.046 | 0.964 ± 0.069 | 0.988 ± 0.071 | 0.951 ± 0.078 | 0.994 ± 0.12 |
| UniProt Q9NSY1 | 1.026 ± 0.003 | 1.03 ± 0.023 | 1.03 ± 0.018 | 1.05 ± 0.027 | 1.05 ± 0.02 | 1.09 ± 0.02 |
| IGF2BP1 (UniProt Q9NZI8) | 1.01 ± 0.03 | 0.995 ± 0.026 | 0.9899 ± 0.0031 | 1.05 ± 0.035 | 1.02 ± 0.039 | 1.01 ± 0.05 |
| UniProt Q9NYV4 and related entries | 1.05 ± 0.015 | 1.09 ± 0.017 | 1.064 ± 0.0043 | 1.08 ± 0.038 | 1.07 ± 0.045 | 1.11 ± 0.04 |
| UniProt Q9NXK8 and related entries | 1.018 ± 0.0035 | 1 ± 0.031 | 0.9901 ± 0.0047 | 0.9994 ± 0.008 | 1.005 ± 0.0022 | 0.998 ± 0.024 |
| UniProt Q9NRZ7 and related entries | 0.975 ± 0.028 | 0.958 ± 0.031 | 0.966 ± 0.014 | 0.927 ± 0.02 | 0.955 ± 0.018 | 0.941 ± 0.043 |
| GNL3L (UniProt Q9NVN8) | 1.05 ± 0.037 | 1.05 ± 0.031 | 1.05 ± 0.058 | 1.07 ± 0.034 | 1.07 ± 0.062 | 1.1 ± 0.087 |
| ARMC1 (UniProt Q9NVT9) | 0.998 ± 0.039 | 1.03 ± 0.077 | 0.984 ± 0.032 | 1.03 ± 0.079 | 1.03 ± 0.068 | 1.04 ± 0.094 |
| UniProt Q9P1W8 and related entries | 0.9928 ± 0.0047 | 1.04 ± 0.041 | 1.02 ± 0.018 | 1.0109 ± 0.00039 | 1.0171 ± 0.00063 | 1.024 ± 0.0042 |
| NHP2 (UniProt Q9NX24) | 1 ± 0.013 | 0.997 ± 0.019 | 1.06 ± 0.05 | 1.14 ± 0.02 | 1.19 ± 0.021 | 1.2 ± 0.022 |
| NECAP2 (UniProt Q9NVZ3) | 1.02 ± 0.026 | 0.998 ± 0.031 | 0.982 ± 0.017 | 0.999 ± 0.013 | 0.984 ± 0.011 | 0.998 ± 0.046 |
| KIF15 (UniProt Q9NS87) | 1.02 ± 0.017 | 1.04 ± 0.016 | 1.0173 ± 0.00066 | 0.983 ± 0.035 | 0.963 ± 0.015 | 0.977 ± 0.026 |
| SAE1 (UniProt Q9UBE0) | 1.009 ± 0.0077 | 0.981 ± 0.029 | 0.9643 ± 0.0042 | 0.991 ± 0.033 | 0.983 ± 0.044 | 0.982 ± 0.057 |
| UniProt Q9NXR7 | 1.03 ± 0.056 | 1.03 ± 0.063 | 1.04 ± 0.072 | 0.993 ± 0.041 | 0.994 ± 0.042 | 0.995 ± 0.044 |
| DHCR7 (UniProt Q9UBM7) | 1.04 ± 0.063 | 1.01 ± 0.06 | 1.04 ± 0.081 | 0.986 ± 0.035 | 1 ± 0.058 | 0.986 ± 0.061 |
| OSTC (UniProt Q9NRP0) | 1.02 ± 0.038 | 1.02 ± 0.025 | 1.03 ± 0.049 | 1.03 ± 0.022 | 1.039 ± 0.0094 | 1.04 ± 0.015 |
| USE1 (UniProt Q9NZ43) | 1 ± 0.017 | 1.06 ± 0.053 | 0.9922 ± 0.0053 | 0.974 ± 0.03 | 0.95 ± 0.02 | 0.986 ± 0.028 |
